These are yes or no findings as the source states them, for the method shown. Tags and fused reporters may be left off the sequences shown.
Target: T1, purified processed mouse Lefty1 protein (mouse) (UniProt Q64280)
T1 sequence: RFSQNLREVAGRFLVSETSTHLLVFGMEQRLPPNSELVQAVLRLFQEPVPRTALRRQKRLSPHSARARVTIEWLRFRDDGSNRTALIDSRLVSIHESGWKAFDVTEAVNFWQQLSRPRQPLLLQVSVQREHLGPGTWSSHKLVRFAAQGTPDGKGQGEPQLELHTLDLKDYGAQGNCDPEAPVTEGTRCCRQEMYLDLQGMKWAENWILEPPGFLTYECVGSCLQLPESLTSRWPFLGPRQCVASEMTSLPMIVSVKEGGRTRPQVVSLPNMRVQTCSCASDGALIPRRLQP
Experiment: co-IP; purified mLefty1 (10 μg/ml) mixed with soluble Cripto/His (5 μg/ml) or VEGF-D/His (5 μg/ml) in PBS; cross-linked with 1 mM DTSSP for 1 h on ice; mLefty1 immunoprecipitated with anti-mLefty1 antibody; anti-His blot (Figure 3D); both purified

B1: purified mouse VEGF-D/His protein (ligand, UniProt P97946 94-210)
chain: FAATFYDTETLKVIDEEWQRTQCSPRETCVEVASELGKTTNTFFKPPCVNVFRCGGCCNEEGVMCMNTSTSYISKQLFEISVPLTSVPELVPVKIANHTGCKCLPTGPRHPYSIIRR
For B1, the binding was “no binding (tested: 5 μg/ml)”.
